The shares of active, inactive and inconclusive entries below differ from those in the screen. Potencies beside an inconclusive call are fits to weak or partial responses and may not hold up. The source made the active and inactive calls. The call rests on the fitted dose curve; in most records, active means well fitted curve in the direction sought with a large enough effect; inconclusive means small, poorly fitted or top-dose-only effect, or another doubt; inactive means no such curve, though single readings can be large; an effect the other way counts as inactive or inconclusive.
What was measured:
[1] = Quantitative High-Throughput drug screen in 47 multiple myeloma cell lines against the NCATS MIPE library collection: KMS20_JCRB cell viability assay (AID 1918973); conditions: CellTiter-Glo ATP, 48 h; viability (% of DMSO): at 45.8 µM (top of the series); further: nearly all actives have a fitted effect of over 45% in size
Procedure, shortened: (§1)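 CellTiter-Glo ATP luminescence gave viability after 48 h compound treatment at 37C of 500 multiple myeloma cells per well. Normalisation used DMSO-only wells as 100% and media-only wells as 0% viability; primary qHTS of approved and investigational drugs.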

[2] = Quantitative High-Throughput drug screen in 47 multiple myeloma cell lines against the NCATS MIPE library collection: KMS21BM_JCRB cell viability assay (AID 1918974); conditions: ATP luminescence, 48 h; viability: at 45.8 µM (top of the series) unless noted
Procedure, shortened: as §1

[3] = Quantitative High-Throughput drug screen in 47 multiple myeloma cell lines against the NCATS MIPE library collection: KMS26_JCRB cell viability assay (AID 1918975); conditions: KMS26 myeloma cells viability, CellTiter-Glo ATP, 48 h; viability (% of DMSO): at 45.8 µM (top of the series); further: nearly all actives have a fitted effect of over 45% in size
Procedure, shortened: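 Luminescent ATP measurement with CellTiter-Glo gives viability, scaled between DMSO-only wells (100%) and media-only wells (0%). Cells, 500 per well, faced library compounds for 48 hours at 37C.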

[4] = Quantitative High-Throughput drug screen in 47 multiple myeloma cell lines against the NCATS MIPE library collection: MMM1_PLB cell viability assay (AID 1918976); further: nearly all actives have a fitted effect of over 35% in size
Procedure, shortened: (§2)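 Readout: median RLU from CellTiter-Glo after 5 min at room temperature. Preceding step was 48 h drug treatment of 500 cells/well at 37 °C, 5% CO2, with DMSO-only and media-only control wells.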

[5] = Quantitative High-Throughput drug screen in 47 multiple myeloma cell lines against the NCATS MIPE library collection: MOLP8_DSMZ cell viability assay (AID 1918977); conditions: MOLP8 myeloma viability, CellTiter-Glo ATP luminescence, 48 h; viability (% of control): at 45.8 µM (top of the series); further: nearly all actives have a fitted effect of over 45% in size
Procedure, shortened: as §2

[6] = Quantitative High-Throughput drug screen in 47 multiple myeloma cell lines against the NCATS MIPE library collection: NCIH929_DSMZ cell viability assay (AID 1918978); further: nearly all actives have a fitted effect of over 35% in size
Procedure, shortened: as §2

[7] = Quantitative High-Throughput drug screen in 47 multiple myeloma cell lines against the NCATS MIPE library collection: MM1S_ATCC cell viability assay (AID 1918980); further: nearly all actives have a fitted effect of over 45% in size
Procedure, shortened: as §2

[8] = Quantitative High-Throughput drug screen in 47 multiple myeloma cell lines against the NCATS MIPE library collection: MM1R_ATCC cell viability assay (AID 1918981); further: nearly all actives have a fitted effect of over 35% in size
Procedure, shortened: as §2

[9] = Quantitative High-Throughput drug screen in 47 multiple myeloma cell lines against the NCATS MIPE library collection: KMS28PE_JCRB cell viability assay (AID 1918983); further: nearly all actives have a fitted effect of over 35% in size
Procedure, shortened: as §2

[10] = Quantitative High-Throughput drug screen in 47 multiple myeloma cell lines against the NCATS MIPE library collection: L363_DSMZ cell viability assay (AID 1918984); conditions: L363 myeloma viability, CellTiter-Glo ATP luminescence, 48 h; viability (% of control): at 45.8 µM (top of the series); further: nearly all actives have a fitted effect of over 40% in size
Procedure, shortened: as §2

[11] = Quantitative High-Throughput drug screen in 47 multiple myeloma cell lines against the NCATS MIPE library collection: KMS34_JCRB cell viability assay (AID 1918985); conditions: KMS34 myeloma viability, CellTiter-Glo ATP luminescence, 48 h; viability, percent of control: at 45.8 µM (top of the series); further: nearly all actives have a fitted effect of over 40% in size
Procedure, shortened: as §2

[12] = Quantitative High-Throughput drug screen in 47 multiple myeloma cell lines against the NCATS MIPE library collection: OCIMY7_PLB cell viability assay (AID 1918987); conditions: OCI-MY7 myeloma viability, CellTiter-Glo ATP, 48 h; viability (% of DMSO): at 45.8 µM (top of the series); further: nearly all actives have a fitted effect of over 65% in size
Procedure, shortened: as §2

[13] = Quantitative High-Throughput drug screen in 47 multiple myeloma cell lines against the NCATS MIPE library collection: OPM1_PLB cell viability assay (AID 1918989); further: nearly all actives have a fitted effect of over 40% in size
Procedure, shortened: as §2

[14] = Quantitative High-Throughput drug screen in 47 multiple myeloma cell lines against the NCATS MIPE library collection: SKMM1_PLB cell viability assay (AID 1919863); conditions: SKMM1 myeloma viability, CellTiter-Glo ATP, 48 h; viability: hits give low values; further: nearly all actives have a fitted effect of over 35% in size
Procedure, shortened: as §2

[15] = Quantitative High-Throughput drug screen in 47 multiple myeloma cell lines against the NCATS MIPE library collection: U266_ATCC cell viability assay (AID 1919864); conditions: U266 myeloma viability, CellTiter-Glo ATP luminescence, 48 h; viability (% of DMSO control): at 45.8 µM (top of the series); further: nearly all actives have a fitted effect of over 35% in size
Procedure, shortened: as §2

[16] = Quantitative High-Throughput drug screen in 47 multiple myeloma cell lines against the NCATS MIPE library collection: XG6_PLB cell viability assay (AID 1919865); conditions: XG6 myeloma viability, CellTiter-Glo ATP luminescence, 48 h; viability (% of control): at 45.8 µM (top of the series); further: nearly all actives have a fitted effect of over 40% in size
Procedure, shortened: as §2

[17] = Quantitative High-Throughput drug screen in 47 multiple myeloma cell lines against the NCATS MIPE library collection: XG1_PLB cell viability assay (AID 1919866); conditions: CellTiter-Glo ATP, 48 h; viability: at 45.8 µM (top of the series); further: nearly all actives have a fitted effect of over 35% in size
Procedure, shortened: as §2

[18] = Quantitative High-Throughput drug screen in 47 multiple myeloma cell lines against the NCATS MIPE library collection: LP1_DSMZ cell viability assay (AID 1918982); conditions: LP1 myeloma viability, CellTiter-Glo ATP luminescence, 48 h; viability (% of control): at 45.8 µM (top of the series); further: nearly all actives have a fitted effect of over 35% in size
Procedure, shortened: as §2

[19] = Quantitative High-Throughput drug screen in 47 multiple myeloma cell lines against the NCATS MIPE library collection: OCIMY5_PLB cell viability assay (AID 1918988); conditions: OCI-MY5 myeloma viability, ATP luminescence, 48 h; viability, % of control: at 45.8 µM (top of the series); further: nearly all actives have a fitted effect of over 65% in size;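 on viability, % of control: 100% = DMSO-treated wells and 0% = wells with media alone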
Procedure, shortened: as §2

[20] = Quantitative High-Throughput drug screen in 47 multiple myeloma cell lines against the NCATS MIPE library collection: OCIMY1_PLB cell viability assay (AID 1918979); conditions: OCI-MY1 myeloma viability, CellTiter-Glo ATP, 48 h; viability: at 45.8 µM (top of the series) unless noted; further: nearly all actives have a fitted effect of over 35% in size
Procedure, shortened: as §2
Potency means the concentration at half of the fitted maximal effect.

COc1cc(Nc2ncc3c(n2)-c2ccc(Cl)cc2C(c2c(F)cccc2OC)=NC3)ccc1C(=O)O
inactive: Potency [6] | Potency [8] | Potency [10] | viability [14] 78.9% | Potency [15]
inconclusive: Potency [1] 2.64 µM [cytotoxic, full curve, poor fit] | Potency [2] 33.2 µM [cytotoxic, partial curve, poor fit] | Potency [3] 37.2 µM [cytotoxic, single point] | Potency [4] 0.0743 µM [rising, full curve, poor fit] | Potency [5] 29.6 µM [cytotoxic, single point] | Potency [7] 0.0132 µM [cytotoxic, full curve, poor fit] | Potency [9] 0.0187 µM [cytotoxic, full curve, poor fit] | Potency [11] 0.0105 µM [cytotoxic, full curve] | Potency [12] 0.0526 µM [cytotoxic, full curve, poor fit] | Potency [13] 2.35 µM [cytotoxic, full curve] | Potency [16] 20.9 µM [cytotoxic, partial curve, poor fit] | Potency [17] 0.0105 µM [cytotoxic, full curve]

O=C(O)c1cccnc1
inactive: Potency [1] | Potency [5] | Potency [6] | Potency [7] | Potency [18] | Potency [9] | Potency [10] | viability [14] 107% | Potency [15]
inconclusive: Potency [2] 0.0083 µM [rising, full curve, poor fit] | Potency [3] 7.43 µM [cytotoxic, single point] | Potency [12] 11.8 µM [cytotoxic, partial curve, poor fit] | Potency [19] 4.18 µM [cytotoxic, full curve, poor fit] | Potency [16] 10.5 µM [cytotoxic, partial curve, poor fit] | Potency [17] 18.7 µM [cytotoxic, partial curve, poor fit]
active: Potency [4] 1.48 µM

C=CC(=O)Nc1cccc(Oc2nc(Nc3ccc(N4CCN(C)CC4)cc3OC)ncc2Cl)c1
inconclusive: Potency [1] 0.0019 µM [cytotoxic, full curve, poor fit] | Potency [2] 37.2 µM [cytotoxic, partial curve, poor fit] | Potency [4] 33.2 µM [cytotoxic, single point] | Potency [5] 26.4 µM [cytotoxic, single point] | Potency [6] 9.35 µM [cytotoxic, partial curve] | Potency [7] 46.9 µM [cytotoxic, partial curve, poor fit] | Potency [8] 0.372 µM [cytotoxic, partial curve, poor fit] | Potency [9] 20.9 µM [cytotoxic, partial curve, poor fit] | Potency [10] 37.2 µM [cytotoxic, single point] | Potency [14] 26.4 µM [cytotoxic, single point] | Potency [16] 0.003 µM [cytotoxic, full curve]
active: Potency [3] 26.4 µM | Potency [18] 20.9 µM | Potency [11] 16.6 µM | Potency [12] 0.001 µM | Potency [13] 0.662 µM | Potency [17] 0.0047 µM

CC(C)c1noc(N2CCC(COc3ccc(-c4ccc(S(C)(=O)=O)cc4)nc3)CC2)n1
inactive: Potency [7] | Potency [10] | Potency [11]
active: Potency [4] 9.35 µM | Potency [5] 0.418 µM | Potency [8] 13.2 µM
inconclusive: Potency [1] 16.6 µM [cytotoxic, partial curve, poor fit] | Potency [2] 33.2 µM [rising, partial curve] | Potency [3] 6.62 µM [cytotoxic, partial curve, poor fit] | Potency [6] 5.9 µM [cytotoxic, partial curve, poor fit] | Potency [20] 11.8 µM [cytotoxic, full curve, poor fit] | Potency [18] 5.9 µM [cytotoxic, full curve] | Potency [12] 0.0372 µM [cytotoxic, full curve, poor fit] | Potency [14] 0.235 µM [cytotoxic, full curve, poor fit]

COc1ccc(C(C)=O)c(O)c1
inconclusive: Potency [2] 0.0105 µM [cytotoxic, full curve, poor fit] | Potency [3] 1.32 µM [rising, full curve, poor fit] | Potency [4] 0.0013 µM [rising, full curve, poor fit] | Potency [8] 5.9 µM [rising, partial curve] | Potency [10] 0.059 µM [cytotoxic, full curve, poor fit] | Potency [12] 0.0019 µM [rising, full curve] | Potency [15] 0.0372 µM [rising, full curve, poor fit] | Potency [17] 33.2 µM [cytotoxic, single point]
inactive: Potency [1] | Potency [5] | Potency [6] | Potency [18] | Potency [11] | Potency [19] | Potency [13]

From PubChem BioAssay (NCATS)
